Results reported in paper PMC11925803.
These are yes or no findings as the source states them, for the method shown. In cells and extracts the contact can be indirect. Some binding calls cover weakened binding; strength is not graded here.

The chains behind the UniProt entries cited, without tags or fusion partners.
UniProt Q13950: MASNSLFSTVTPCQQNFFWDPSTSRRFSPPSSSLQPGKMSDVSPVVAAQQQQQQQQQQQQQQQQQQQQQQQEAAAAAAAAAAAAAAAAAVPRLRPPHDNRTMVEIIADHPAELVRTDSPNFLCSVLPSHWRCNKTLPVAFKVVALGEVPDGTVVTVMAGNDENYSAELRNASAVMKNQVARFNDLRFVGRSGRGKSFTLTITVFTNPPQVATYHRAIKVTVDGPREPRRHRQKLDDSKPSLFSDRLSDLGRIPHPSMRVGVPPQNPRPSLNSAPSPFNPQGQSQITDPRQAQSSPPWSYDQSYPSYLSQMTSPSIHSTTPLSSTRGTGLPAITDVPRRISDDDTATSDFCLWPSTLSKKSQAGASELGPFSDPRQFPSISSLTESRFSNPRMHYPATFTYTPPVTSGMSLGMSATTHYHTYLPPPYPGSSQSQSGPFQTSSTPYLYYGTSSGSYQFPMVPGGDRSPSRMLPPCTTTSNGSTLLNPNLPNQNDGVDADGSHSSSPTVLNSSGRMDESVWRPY
UniProt Q9NRG4: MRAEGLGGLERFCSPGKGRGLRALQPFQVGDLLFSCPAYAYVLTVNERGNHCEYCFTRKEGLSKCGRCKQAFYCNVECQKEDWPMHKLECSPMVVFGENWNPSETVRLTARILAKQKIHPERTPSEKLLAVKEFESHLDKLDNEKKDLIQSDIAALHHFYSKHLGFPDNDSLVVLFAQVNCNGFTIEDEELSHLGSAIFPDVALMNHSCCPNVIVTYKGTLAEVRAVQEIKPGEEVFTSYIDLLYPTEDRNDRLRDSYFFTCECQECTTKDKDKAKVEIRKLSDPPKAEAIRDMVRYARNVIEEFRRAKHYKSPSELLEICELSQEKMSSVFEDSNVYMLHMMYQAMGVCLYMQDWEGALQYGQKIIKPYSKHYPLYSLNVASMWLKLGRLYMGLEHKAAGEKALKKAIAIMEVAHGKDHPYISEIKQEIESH

Target: Runt-related transcription factor-2 (RUNX2) (UniProt Q13950)
Experiment: co-IP; co-immunoprecipitation with endogenous and with overexpressed Smyd2; cells, bait and conditions not stated

## SMYD2 (SET and MYND domain-containing protein 2), overexpressed (from UniProt Q9NRG4 1-433) (enzyme)
  binding: binds

## SMYD2 (SET and MYND domain-containing protein 2), endogenous (from UniProt Q9NRG4 1-433) (enzyme)
  binding: binds
